Source: patent US12239643B2, “Therapeutic agent for inflammatory diseases, autoimmune diseases, fibrotic diseases, and cancer diseases” (MEIJI SEIKA PHARMA CO., LTD., priority 2018, dated 2025)
For at least one compound, name, drawing or mass did not settle the structure.

System: PDE4
Experiment: Evaluation of PDE4 inhibitory activity, scintillation proximity assay
Assay type: biochemical
Details: read-out: PDE4 Inhibitory Activity (Evaluation 1; concentration for the inhibition rate of 50%)
Description: The BDE4 inhibitory activity was measured using scintillation proximity assay (SPA) as follows. First, a test compound dissolved in dimethyl sulfoxide was diluted 1:10 in reaction buffer solution which contained 50 mM of Tris-HCl with pH 7.4, 8.3 mM of MgCl2, 1.7 mM of EGTA, and 3 mg/mL of bovine serum albumin (BSA). Then, 10 μL of the diluted solution was added in a 96-well assay plate. Moreover, 50 μL of PDE4 (enzyme preparation) diluted 1:375 in the reaction buffer solution was added, and then 40 μL of [2,8-^3H]-adenosine-3′,5′-cyclic phosphate triethylammonium salt diluted 1:1000 in the reaction buffer solution was added. The mixture was allowed to stand at room temperature for 120 minutes. Thereafter, […] of RNA binding YSi-SPA beads suspension containing ZnSO4 was added and the mixture was allowed to stand at room temperature for 15 minutes, followed by adsorption of the enzyme reaction product to the beads. After that, the radioactivity was measured using a liquid scintillation counter for a 96-well plate. The mixture without the enzyme preparation added but only the reaction buffer solution added is a blank, and the mixture with the enzyme preparation added and only dimethyl sulfoxide added instead of the test compound is a control.
In addition, the PDE4 inhibitory activity (concentration that inhibits PDE4 activity by 50%=concentration for the inhibition rate of 50% (IC50)) of the test compound was calculated from the inhibition curves based on the inhibition rates for various concentrations of the test compound.

Work on CC(C)(O)c1ccc(-c2nccs2)c2oc(N3CC4CC(C3)N4)nc12 [Example 246, 2-(2-(3,6-Diazabicyclo[3.1.1]heptan-3-yl)-7-(thiazol-2-yl)benzo[d]oxazol-4-yl)propan-2-ol] yielded an IC50 of less than 100 nM.

In the case of c1ccc(Oc2ccc(-c3nccs3)c3oc(N4CC5CC(C4)N5)nc23)nc1 [Example 337, 2-(3,6-Diazabicyclo[3.1.1]heptan-3-yl)-4-(pyridin-2-yloxy)-7-(thiazol-2-yl)benzo[d]oxazole], the IC50 is reported as less than 100 nM.

For CON=C(C)c1cc(-c2nccs2)c2oc(N3CC4CC(C3)N4)nc2c1OC(F)(F)F (mixture of isomers) [Example 219, (E)-1-(2-(3,6-diazabicyclo[3.1.1]heptan-3-yl)-7-(thiazol-2-yl)-4-(trifluoromethoxy)benzo[d]oxazol-5-yl)ethan-1-one O-methyloxime and (Z)-1-(2-(3,6-diazabicyclo[3.1.1]heptan-3-yl)-7-(thiazol-2-yl)-4-(trifluoromethoxy)benzo[d]oxazol-5-yl)ethan-1-one O-methyloxime], the IC50 was less than 100 nM.
